Values from PubChem BioAssay AID686938 (Drosophila RNAi Screening Center, 2013)

Aim: 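Knock-downs reducing store-operated calcium influx in Drosophila cells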 (primary screen)
Cell system: Drosophila S2R+ cells
Reagent: long dsRNA against Drosophila genes, about 0.25 µg dsRNA per well, roughly 10,000 cells
Duration: 5 days of knock-down before the calcium assay
Challenge: thapsigargin (SERCA pump blocker) to empty calcium stores; entry signal taken 4 min after adding it
Detection: 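Per-well fluo-4 fluorescence in two replicates, unnormalised, measured in resting cells and 4 min after store depletion by the SERCA blocker thapsigargin; ratio of the two present in few wells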
Direction: calcium entry signal: higher = stronger calcium signal after store depletion; entry to resting ratio: higher = more calcium entry relative to resting level; resting calcium signal: higher = higher resting calcium signal
Rule for the call: 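Called when the plate z-score of the entry-to-rest ratio, mean of duplicates, falls below −3; wells with low overall dye signal (Fmax z below −2) or more than five off-targets excluded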
Meaning of the calls: active = strongly reduced calcium entry; inactive = no strong reduction
The deposit covers about 23,000 reagents; shown is an unselected part of those with a known target gene and a result. Over the whole deposit, 75 (0.33%) got an active call. 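Raw plate signals without normalisation; calls rest on plate z-scores that were not deposited; ratio present for only 364 wells.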 A number with no mark means an inactive call. Reagents against one gene are numbered here. Names joined by + are all predicted targets of the reagent. Not stated in the record: the dose of the treatment.

| Gene | dsRNA no. | calcium entry signal, replicate 1 (fluorescence units) | calcium entry signal, replicate 2 (fluorescence units) | entry to resting ratio | resting calcium signal, replicate 1 (fluorescence units) | resting calcium signal, replicate 2 (fluorescence units) |
| --- | --- | --- | --- | --- | --- | --- |
| CG14744 (GeneID 35858) | 1 | 3.54e7 | 3.72e7 | – | 1.67e7 | 1.72e7 |
| Bmcp (GeneID 39322) | 1 | 3.97e7 | 3.18e7 | – | 2.93e7 | 1.37e7 |
| CG3631 (GeneID 41797) | 1 | 2.86e7 | 4.57e7 | – | 1.19e7 | 1.88e7 |
| CG34178 + CG34177 | 1 | 2.69e7 | 2.50e7 | – | 1.39e7 | 1.19e7 |
| Aldh (GeneID 34256) | 1 | 3.62e7 | 5.52e7 | – | 1.73e7 | 2.34e7 |
| Dmtn (GeneID 40792) | 1 | 3.92e7 | 4.71e7 | – | 1.60e7 | 1.89e7 |
| hb (GeneID 41032) | 1 | 2.67e7 | 3.15e7 | – | 1.18e7 | 1.43e7 |
| Ctns (GeneID 42723) | 1 | 5.03e7 | 5.25e7 | – | 2.55e7 | 2.36e7 |
| Obp69a (GeneID 39411) | 1 | 3.56e7 | 3.22e7 | – | 1.83e7 | 1.45e7 |
| CG43219 (GeneID 12798437) | 1 | 2.71e7 | 4.55e7 | – | 1.43e7 | 2.07e7 |
| CG15646 (GeneID 32501) | 1 | 2.55e7 | 3.67e7 | – | 1.49e7 | 1.71e7 |
| Ndc80 (GeneID 32316) | 1 | 3.73e7 | 3.66e7 | – | 1.84e7 | 2.06e7 |
| Ndc80 (GeneID 32316) | 2 | 2.29e7 | 2.49e7 | – | 1.36e7 | 1.11e7 |
| Syx16 (GeneID 33034) | 1 | 2.62e7 | 3.15e7 | – | 1.33e7 | 1.45e7 |
| CG34248 (GeneID 5740883) | 1 | 3.08e7 | 5.66e7 | – | 1.52e7 | 2.62e7 |
| mkg-p (GeneID 38955) | 1 | 4.42e7 | 3.48e7 | – | 2.99e7 | 1.48e7 |

As entered above.
Result for Ndc80 (GeneID 32316) #2 in “calcium entry signal, replicate 1 (fluorescence units)”: 2.29e7
Value of mkg-p (GeneID 38955) in “calcium entry signal, replicate 2 (fluorescence units)”: 3.48e7
Under “resting calcium signal, replicate 1 (fluorescence units)”, Bmcp (GeneID 39322) is entered as 2.93e7
Ndc80 (GeneID 32316) #1, resting calcium signal, replicate 1 (fluorescence units) → 1.84e7

The listing continues:
| Gene | dsRNA no. | calcium entry signal, replicate 1 (fluorescence units) | calcium entry signal, replicate 2 (fluorescence units) | entry to resting ratio | resting calcium signal, replicate 1 (fluorescence units) | resting calcium signal, replicate 2 (fluorescence units) |
| --- | --- | --- | --- | --- | --- | --- |
| cyp33 (GeneID 36984) | 1 | 2.85e7 | 2.42e7 | – | 1.31e7 | 1.10e7 |
| CG15408 (GeneID 33548) | 1 | 2.55e7 | 2.55e7 | – | 1.29e7 | 1.27e7 |
| Or65a (GeneID 318011) | 1 | 2.74e7 | 4.21e7 | – | 1.76e7 | 1.75e7 |
| Spf45 (GeneID 3355114) | 1 | 5.13e7 | 5.64e7 | – | 2.53e7 | 2.44e7 |
| CG5989 (GeneID 38984) | 1 | 4.97e7 | 2.81e7 | – | 3.11e7 | 1.24e7 |
| heph (GeneID 48571) | 1 | 4.06e7 | 2.77e7 | – | 1.71e7 | 1.20e7 |
| heph (GeneID 48571) | 2 | 4.63e7 | 3.01e7 | – | 1.95e7 | 1.28e7 |
| heph (GeneID 48571) | 3 | 3.59e7 | 4.26e7 | 2 | 1.79e7 | 1.98e7 |
| heph (GeneID 48571) | 4 | 3.76e7 | 4.77e7 | 2 | 1.87e7 | 1.98e7 |
